Results are given in words; binding and its absence hold for the method and conditions named. In cells and extracts the contact can be indirect. A yes stands for co-enrichment or nearness to the bait. Other partners may have been found.
Experiments:
[1] = target: chromodomain helicase DNA-binding protein 8 (human (endogenous in iPSC-derived NPCs)) (UniProt Q9HCK8); assay: affinity purification with mass spectrometry; endogenous CHD8 immunoprecipitated from the hNPC nuclear fraction with two antibodies (#17 N-terminal, #18 C-terminal), rabbit IgG as control; LC-MS/MS; three biological replicates
[2] = target: Chd8 (mouse) (mouse (endogenous in mESCs)) (UniProt Q09XV5); assay: affinity purification with mass spectrometry; independent Chd8 MS analysis on mouse embryonic stem cells; no further details told

By UniProt entry, the sequences of proteins in these tests, tags left out.
UniProt Q9HCK8: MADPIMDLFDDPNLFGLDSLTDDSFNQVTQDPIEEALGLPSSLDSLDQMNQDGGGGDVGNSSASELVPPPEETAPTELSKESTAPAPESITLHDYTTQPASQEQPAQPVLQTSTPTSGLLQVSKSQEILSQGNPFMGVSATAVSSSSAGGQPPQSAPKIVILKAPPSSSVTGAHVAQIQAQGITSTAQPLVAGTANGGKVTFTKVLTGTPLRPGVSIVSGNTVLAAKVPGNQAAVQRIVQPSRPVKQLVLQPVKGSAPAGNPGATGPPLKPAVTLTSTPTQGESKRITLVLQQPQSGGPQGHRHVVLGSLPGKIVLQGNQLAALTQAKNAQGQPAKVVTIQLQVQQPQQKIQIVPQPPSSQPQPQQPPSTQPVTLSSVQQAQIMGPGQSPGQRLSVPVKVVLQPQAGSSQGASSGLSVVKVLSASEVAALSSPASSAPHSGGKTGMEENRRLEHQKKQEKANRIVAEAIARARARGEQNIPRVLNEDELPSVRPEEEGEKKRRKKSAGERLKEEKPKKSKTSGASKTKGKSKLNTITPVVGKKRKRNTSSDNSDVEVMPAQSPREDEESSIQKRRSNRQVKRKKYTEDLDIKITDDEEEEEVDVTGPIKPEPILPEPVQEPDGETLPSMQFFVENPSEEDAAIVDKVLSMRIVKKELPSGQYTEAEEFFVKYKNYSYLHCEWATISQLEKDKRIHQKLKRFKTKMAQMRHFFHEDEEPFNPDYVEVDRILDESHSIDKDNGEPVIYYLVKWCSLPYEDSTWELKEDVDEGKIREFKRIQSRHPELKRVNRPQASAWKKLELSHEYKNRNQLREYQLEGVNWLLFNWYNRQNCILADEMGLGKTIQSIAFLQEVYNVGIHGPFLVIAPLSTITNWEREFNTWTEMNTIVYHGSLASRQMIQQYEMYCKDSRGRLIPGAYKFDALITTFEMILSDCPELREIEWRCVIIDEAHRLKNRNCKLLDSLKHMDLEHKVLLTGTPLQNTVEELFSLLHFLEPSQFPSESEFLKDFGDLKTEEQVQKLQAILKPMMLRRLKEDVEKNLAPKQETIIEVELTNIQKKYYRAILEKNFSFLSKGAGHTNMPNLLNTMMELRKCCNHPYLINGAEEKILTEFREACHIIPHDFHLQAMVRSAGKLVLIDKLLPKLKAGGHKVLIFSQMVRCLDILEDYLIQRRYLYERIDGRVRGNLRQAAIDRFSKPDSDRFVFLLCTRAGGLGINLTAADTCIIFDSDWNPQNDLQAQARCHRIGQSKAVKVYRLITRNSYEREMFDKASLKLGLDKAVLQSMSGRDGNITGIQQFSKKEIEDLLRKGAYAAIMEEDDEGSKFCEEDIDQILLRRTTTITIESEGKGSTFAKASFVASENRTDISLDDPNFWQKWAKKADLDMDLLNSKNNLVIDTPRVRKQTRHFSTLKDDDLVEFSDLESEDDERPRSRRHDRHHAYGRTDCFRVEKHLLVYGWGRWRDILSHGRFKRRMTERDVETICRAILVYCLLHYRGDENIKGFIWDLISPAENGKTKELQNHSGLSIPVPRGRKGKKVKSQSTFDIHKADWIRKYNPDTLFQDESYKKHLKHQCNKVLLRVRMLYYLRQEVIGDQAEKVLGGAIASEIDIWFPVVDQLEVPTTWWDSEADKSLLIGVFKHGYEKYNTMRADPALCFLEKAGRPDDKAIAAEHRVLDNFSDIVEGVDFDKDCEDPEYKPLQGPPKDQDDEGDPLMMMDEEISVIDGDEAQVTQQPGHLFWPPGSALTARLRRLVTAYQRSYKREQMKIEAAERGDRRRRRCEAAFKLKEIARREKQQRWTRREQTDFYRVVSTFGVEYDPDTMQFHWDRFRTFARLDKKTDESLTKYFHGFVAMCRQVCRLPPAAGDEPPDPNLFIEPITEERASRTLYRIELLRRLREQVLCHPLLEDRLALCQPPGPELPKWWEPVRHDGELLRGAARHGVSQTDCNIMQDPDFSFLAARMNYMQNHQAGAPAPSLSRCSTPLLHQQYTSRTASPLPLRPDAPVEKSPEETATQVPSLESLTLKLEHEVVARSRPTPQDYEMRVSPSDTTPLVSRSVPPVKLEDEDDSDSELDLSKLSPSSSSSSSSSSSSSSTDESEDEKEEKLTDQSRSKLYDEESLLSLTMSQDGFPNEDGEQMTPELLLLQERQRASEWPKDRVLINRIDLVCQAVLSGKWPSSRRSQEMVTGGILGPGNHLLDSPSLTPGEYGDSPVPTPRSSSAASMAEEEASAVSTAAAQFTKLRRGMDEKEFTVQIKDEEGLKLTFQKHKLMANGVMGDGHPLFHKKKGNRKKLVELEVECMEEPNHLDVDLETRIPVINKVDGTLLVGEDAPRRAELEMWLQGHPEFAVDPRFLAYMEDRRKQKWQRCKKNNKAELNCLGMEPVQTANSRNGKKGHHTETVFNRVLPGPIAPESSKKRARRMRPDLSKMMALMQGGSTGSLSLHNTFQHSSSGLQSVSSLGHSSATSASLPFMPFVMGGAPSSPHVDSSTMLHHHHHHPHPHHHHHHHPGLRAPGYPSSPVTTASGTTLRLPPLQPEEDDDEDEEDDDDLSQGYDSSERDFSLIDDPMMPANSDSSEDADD
UniProt Q9P2D1: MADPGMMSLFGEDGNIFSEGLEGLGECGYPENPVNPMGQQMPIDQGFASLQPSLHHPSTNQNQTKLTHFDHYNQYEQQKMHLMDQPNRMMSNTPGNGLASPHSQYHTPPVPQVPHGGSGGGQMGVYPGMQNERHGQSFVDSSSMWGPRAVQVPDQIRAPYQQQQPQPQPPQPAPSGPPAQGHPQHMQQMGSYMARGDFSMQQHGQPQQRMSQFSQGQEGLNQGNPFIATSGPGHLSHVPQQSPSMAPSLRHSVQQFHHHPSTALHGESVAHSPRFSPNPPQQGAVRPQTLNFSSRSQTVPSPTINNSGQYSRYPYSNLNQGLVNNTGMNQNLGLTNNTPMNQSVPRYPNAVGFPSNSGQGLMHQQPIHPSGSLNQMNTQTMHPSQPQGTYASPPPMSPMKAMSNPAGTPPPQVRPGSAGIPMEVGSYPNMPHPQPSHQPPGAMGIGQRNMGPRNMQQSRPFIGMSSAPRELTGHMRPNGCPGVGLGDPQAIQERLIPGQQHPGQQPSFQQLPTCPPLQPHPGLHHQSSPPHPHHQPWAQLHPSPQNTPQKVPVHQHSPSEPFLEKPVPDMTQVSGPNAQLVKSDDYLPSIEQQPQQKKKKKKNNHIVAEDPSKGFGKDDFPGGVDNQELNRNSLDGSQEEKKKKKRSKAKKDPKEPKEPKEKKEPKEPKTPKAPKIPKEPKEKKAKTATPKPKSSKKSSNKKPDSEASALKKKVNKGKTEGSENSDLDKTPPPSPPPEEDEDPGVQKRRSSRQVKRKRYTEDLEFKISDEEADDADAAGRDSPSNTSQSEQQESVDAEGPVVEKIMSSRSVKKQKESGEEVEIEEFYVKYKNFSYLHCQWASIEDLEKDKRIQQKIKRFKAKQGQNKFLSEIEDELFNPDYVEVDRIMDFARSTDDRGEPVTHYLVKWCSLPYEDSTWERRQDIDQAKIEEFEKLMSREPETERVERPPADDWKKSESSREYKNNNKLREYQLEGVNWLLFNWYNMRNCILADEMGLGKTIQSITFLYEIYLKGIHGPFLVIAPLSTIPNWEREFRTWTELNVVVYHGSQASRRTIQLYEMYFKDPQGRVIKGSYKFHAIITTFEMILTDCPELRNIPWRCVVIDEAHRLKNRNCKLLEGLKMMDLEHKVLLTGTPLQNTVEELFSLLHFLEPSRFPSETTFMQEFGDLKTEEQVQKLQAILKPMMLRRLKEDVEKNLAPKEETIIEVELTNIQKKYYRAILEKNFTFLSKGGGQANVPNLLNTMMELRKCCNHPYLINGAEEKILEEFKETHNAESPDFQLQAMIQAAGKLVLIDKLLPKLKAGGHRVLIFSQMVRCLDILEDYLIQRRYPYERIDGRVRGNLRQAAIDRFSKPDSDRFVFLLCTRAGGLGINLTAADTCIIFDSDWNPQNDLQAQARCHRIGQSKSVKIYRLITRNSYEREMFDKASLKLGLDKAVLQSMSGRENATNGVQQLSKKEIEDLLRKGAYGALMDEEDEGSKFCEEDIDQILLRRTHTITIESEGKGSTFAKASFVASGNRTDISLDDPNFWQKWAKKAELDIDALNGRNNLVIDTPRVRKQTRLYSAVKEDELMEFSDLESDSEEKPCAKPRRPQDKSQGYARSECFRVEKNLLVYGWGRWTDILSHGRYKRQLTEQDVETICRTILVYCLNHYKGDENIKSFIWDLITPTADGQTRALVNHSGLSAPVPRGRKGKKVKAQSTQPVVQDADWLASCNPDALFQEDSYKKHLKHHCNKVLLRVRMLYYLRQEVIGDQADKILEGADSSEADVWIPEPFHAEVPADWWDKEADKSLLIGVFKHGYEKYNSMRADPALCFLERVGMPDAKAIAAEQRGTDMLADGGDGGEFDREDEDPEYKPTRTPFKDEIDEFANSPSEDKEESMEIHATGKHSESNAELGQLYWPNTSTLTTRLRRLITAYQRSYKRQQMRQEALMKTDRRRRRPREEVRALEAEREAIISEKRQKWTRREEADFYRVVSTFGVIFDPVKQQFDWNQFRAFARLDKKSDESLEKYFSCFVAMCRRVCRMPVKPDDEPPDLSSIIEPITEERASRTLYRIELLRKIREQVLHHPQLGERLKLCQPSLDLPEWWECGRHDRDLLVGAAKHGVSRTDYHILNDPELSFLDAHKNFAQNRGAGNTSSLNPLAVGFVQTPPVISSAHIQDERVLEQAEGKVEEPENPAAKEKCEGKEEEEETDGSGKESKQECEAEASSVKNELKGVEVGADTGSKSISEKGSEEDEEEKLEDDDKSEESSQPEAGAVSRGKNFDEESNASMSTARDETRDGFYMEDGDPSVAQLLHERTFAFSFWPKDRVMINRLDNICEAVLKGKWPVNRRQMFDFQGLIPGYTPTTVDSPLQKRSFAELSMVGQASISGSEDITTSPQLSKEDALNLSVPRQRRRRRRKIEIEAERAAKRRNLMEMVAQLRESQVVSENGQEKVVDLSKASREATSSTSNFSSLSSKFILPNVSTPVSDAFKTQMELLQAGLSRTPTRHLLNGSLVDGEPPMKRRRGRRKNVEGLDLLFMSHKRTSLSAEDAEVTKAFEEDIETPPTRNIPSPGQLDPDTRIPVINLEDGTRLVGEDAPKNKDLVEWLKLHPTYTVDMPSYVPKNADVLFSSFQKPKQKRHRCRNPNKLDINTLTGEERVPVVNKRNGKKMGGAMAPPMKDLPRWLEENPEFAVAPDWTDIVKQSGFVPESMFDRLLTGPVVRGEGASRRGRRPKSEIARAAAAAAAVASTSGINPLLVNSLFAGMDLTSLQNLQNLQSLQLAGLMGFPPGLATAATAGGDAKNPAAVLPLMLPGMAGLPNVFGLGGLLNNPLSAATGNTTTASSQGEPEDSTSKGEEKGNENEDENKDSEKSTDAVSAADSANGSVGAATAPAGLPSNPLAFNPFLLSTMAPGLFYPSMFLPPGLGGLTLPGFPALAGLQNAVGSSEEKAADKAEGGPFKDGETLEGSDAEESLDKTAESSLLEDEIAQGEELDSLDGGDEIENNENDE

CHD7 (from UniProt Q9P2D1 1-2997)
binding [1]: binds

B1: heterogeneous nuclear ribonucleoprotein L (protein, UniProt P14866 1-589)
chain: MSRRLLPRAEKRRRRLEQRQQPDEQRRRSGAMVKMAAAGGGGGGGRYYGGGSEGGRAPKRLKTDNAGDQHGGGGGGGGGAGAAGGGGGGENYDDPHKTPASPVVHIRGLIDGVVEADLVEALQEFGPISYVVVMPKKRQALVEFEDVLGACNAVNYAADNQIYIAGHPAFVNYSTSQKISRPGDSDDSRSVNSVLLFTILNPIYSITTDVLYTICNPCGPVQRIVIFRKNGVQAMVEFDSVQSAQRAKASLNGADIYSGCCTLKIEYAKPTRLNVFKNDQDTWDYTNPNLSGQGDPGSNPNKRQRQPPLLGDHPAEYGGPHGGYHSHYHDEGYGPPPPHYEGRRMGPPVGGHRRGPSRYGPQYGHPPPPPPPPEYGPHADSPVLMVYGLDQSKMNCDRVFNVFCLYGNVEKVKFMKSKPGAAMVEMADGYAVDRAITHLNNNFMFGQKLNVCVSKQPAIMPGQSYGLEDGSCSYKDFSESRNNRFSTPEQAAKNRIQHPSNVLHFFNAPLEVTEENFFEICDELGVKRPSSVKVFSGKSERSSSGLLEWESKSDALETLGFLNHYQMKNPNGPYPYTLKLCFSTAQHAS
binding [1]: binds

B2: hnRNPL (mouse) (protein, UniProt Q8R081 1-586)
chain: MSRRLLPRAEKRRRRLEQRQQPDEQLRRAGAMVKMAAAGGGGGGGRYYGGGNEGGRAPKRLKTENAGDQHGGGGGGGSGAAGGGGGENYDDPHKTPASPVVHIRGLIDGVVEADLVEALQEFGPISYVVVMPKKRQALVEFEDVLGACNAVNYAADNQIYIAGHPAFVNYSTSQKISRPGDSDDSRSVNSVLLFTILNPIYSITTDVLYTICNPCGPVQRIVIFRKNGVQAMVEFDSVQSAQRAKASLNGADIYSGCCTLKIEYAKPTRLNVFKNDQDTWDYTNPNLSGQGDPGSNPNKRQRQPPLLGDHPAEYGGPHGGYHSHYHDEGYGPPPPHYEGRRMGPPVGGHRRGPSRYGPQYGHPPPPPPPPDYGPHADSPVLMVYGLDQSKMNCDRVFNVFCLYGNVEKVKFMKSKPGAAMVEMADGYAVDRAITHLNNNFMFGQKMNVCVSKQPAIMPGQSYGLEDGSCSYKDFSESRNNRFSTPEQAAKNRIQHPSNVLHFFNAPLEVTEENFFEICDELGVKRPTSVKVFSGKSERSSSGLLEWDSKSDALETLGFLNHYQMKNPNGPYPYTLKLCFSTAQHAS
binding [2]: binds
